According to patent EP0999856B1, “RADIOPHARMACEUTICALS FOR IMAGING INFECTION AND INFLAMMATION” (Bristol-Myers Squibb Pharma Company, priority 1996, dated 1998):
Some results were stated once for a whole list of compounds, not compound by compound. For at least one compound, name, drawing or mass did not settle the structure.

Chains of the proteins cited; added tags and fusions are not shown. Lines headed by an entry give the natural chain unless they say otherwise; changes in a name come on top.
UniProt Q15722: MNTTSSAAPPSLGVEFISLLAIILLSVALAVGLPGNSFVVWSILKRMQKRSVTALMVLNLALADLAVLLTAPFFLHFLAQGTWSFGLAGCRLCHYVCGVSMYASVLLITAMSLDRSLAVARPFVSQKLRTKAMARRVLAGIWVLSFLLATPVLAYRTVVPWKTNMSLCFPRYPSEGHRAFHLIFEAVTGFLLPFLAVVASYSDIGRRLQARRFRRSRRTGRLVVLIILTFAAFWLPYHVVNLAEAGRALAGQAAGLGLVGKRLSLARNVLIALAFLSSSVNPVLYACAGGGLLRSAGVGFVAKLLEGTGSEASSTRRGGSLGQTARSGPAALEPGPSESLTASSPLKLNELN

Target: PMN LTB4 receptor (Homo sapiens, UniProt Q15722)
Experiment: LTB4 Human Neutrophil (PMN) Binding Assay
Conditions: competition with [3H]LTB4 (1 nM), 10 min at 4° C; call rule not given here

| Structure (SMILES) | activity in the LTB4 Human Neutrophil (PMN) Binding Assay |
| --- | --- |
| O=C(/C=C/c1nc(CSc2ccc(O)cc2)ccc1OCCc1ccccc1)NCCCNC(=O)c1ccc(N/N=C/c2ccccc2S(=O)(=O)O)nc1 [Example 44, 2-Sulfobenzaldehyde (E)-N-[3-(6-Hydrazinonicotinamido)propyl]-3-[6-[[(4-hydroxyphenyl)thio]methyl]-3-(2-phenylethoxy)-2-pyridinyl]-2-propenamide Hydrazone] | active |
| CCCc1c(OCCCOc2cc(O)c(-c3ccc(F)cc3)cc2CC)ccc2c1OC(C(=O)NCCCNC(=O)C(C)NC(=O)c1ccc(N/N=C/c3ccccc3S(=O)(=O)O)nc1)CC2 (stereo not drawn) [Example 20, N-(3-((7-(3-(6-ethyl-4-(4-fluorophenyl)-3-hydroxyphenoxy)propoxy)-8-propylchroman-2-yl)carbonylamino)propyl)-2-methylpropanamide, 2-(2-aza-2-((5-carbamoyl(2-pyridyl))amino)vinyl)benzenesulfonic acid] | active |
| CC(C)(CCCCOc1cc(-c2ccccc2)cc(-c2ccccc2)n1)c1nnnn1CC(=O)NCCCOCCOCCOCCCNC(=O)c1ccc(N/N=C\c2ccccc2S(=O)(=O)O)nc1 [Example 29, 2-(2-Aza-2-((5-(N-(3-(2-(2-(3-(2-(5-(5-(4,6-diphenyl(2-pyridyloxy))-1,1-dimethylpentyl) (1,2,3,4-tetraazolyl))acetylamino)propoxy)ethoxy)ethoxy)propyl)-carbamoyl)(2-pyridyl))amino)vinyl)benzenesulfonic Acid] | active |
| C=CCc1c(OCCCCCCNC(=O)c2ccc(N/N=C/c3ccccc3S(=O)(=O)O)nc2)ccc2c1CCCC2=O [Example 48, 2-Sulfobenzaldehyde 6-[6-(6-Hydrazinonicotinamido)hexyloxy]-5-(2-propenyl)-1,2,3,4-tetrahydronaphthalen-1-one Hydrazone] | active |
| C=CCc1c(OCCCCCOc2cccc(OCCCC(=O)NCCCCC(NC(=O)c3ccc(N/N=C/c4ccccc4S(=O)(=O)O)nc3)C(=O)NCC(O)C(O)C(O)C(O)CO)c2CCC(=O)O)ccc2c1CCCC2=O (stereo not drawn) [Example 36, 3-(6-(3-N-(5-((6-((1-Aza-2-(2-sulfophenyl)vinyl)amino)(3-pyridyl))carbonylamino)-5-(N-(2,3,4,5,6-pentahydroxyhexyl)carbamoyl)pentyl)carbamoyl)-propoxy-2-(5-(5-oxo-1-prop-2-enyl(2-6,7,8-trihydronaphthyloxy))pentyloxy)phenyl)propanoic Acid] | active |
| C=CCc1c(OCCCNC(=O)c2ccc(N/N=C/c3ccccc3S(=O)(=O)O)nc2)ccc2c1CCCC2=O [Example 52, 2-Sulfobenzaldehyde 6-[3-(6-Hydrazinonicotinamido)propoxy]-5-(2-propenyl)-1,2,3,4-tetrahydronaphthalen-1-one Hydrazone] | active |
| CC(C)(CCCCOc1cc(-c2ccccc2)cc(-c2ccccc2)n1)CNC(=O)c1ccc(N/N=C/c2ccccc2S(=O)(=O)O)nc1 [Example 10, Benzenesulfonic Acid, 2-[[[5-[[[6-[(4,6-diphenyl-2-pyridinyl)oxy]-2,2-dimethyl-1-hexyl]aza]carbonyl]-2-pyridinyl]hydrazono]methyl]] | active |
| CCc1cc(-c2ccc(F)cc2)c(O)cc1OCC1CCCN(C(=O)c2ccc(N/N=C/c3ccccc3S(=O)(=O)O)nc2)C1 (stereo not drawn) [Example 23, 2-(2-aza-2-((5-((3-((6-ethyl-4-(4-fluorophenyl)-3-hydroxyphenoxy)methyl)piperidyl)carbonyl)(2-pyridyl))amino)vinyl)benzenesulfonic acid] | active |
| CC(C)(CCCCOc1cc(-c2ccccc2)cc(-c2ccccc2)n1)c1nnn(CCCCC(=O)NCCCOCCOCCOCCCNC(=O)c2ccc(N/N=C/c3ccccc3S(=O)(=O)O)nc2)n1 [Example 25, 2-(2-Aza-2-((5-(N-(3-(2-(2-(3-(5-(4-(5-(4,6-diphenyl (2-pyridyloxy))-1,1-dimethylpentyl) (1,2,3,5-tetraazolyl))pentanoylamino)propoxy)ethoxy)ethoxy)propyl)-carbamoyl) (2-pyridyl))amino)vinyl)benzenesulfonic Acid] | active |
| C=CCc1c(OCCCCCOc2cccc(OCCCC(=O)NCCCNC(=O)C(CCCCN)NC(=O)C(CCCCN)NC(=O)C(CCCCN)NC(=O)CNC(=O)c3ccc(N/N=C/c4ccccc4S(=O)(=O)O)nc3)c2CCC(=O)O)ccc2c1CCCC2=O (stereo not drawn) [Example 38, 3-(6-(3-(N-(3-((6-((1-Aza-2-(2-sulfophenyl)vinyl)amino)(3-pyridyl))-Gly-Lys-Lys-Lys)aminopropyl)carbamoyl)propoxy)-2-(5-(5-oxo-1-prop-2-enyl(2-6,7,8-trihydronaphthyloxy))pentyloxy)phenyl)propanoic Acid] | active |
| C=CCc1c(OCCCCCOc2cccc(OCCCC(=O)NCCOCCOCCOCCOCCOCCOCCOCCNC(=O)c3ccc(NN=Cc4ccccc4S(=O)(=O)O)nc3)c2CCC(=O)O)ccc2c1CCCC2=O [Example 35] | active |
| CC(C)(CCCCOc1cc(-c2ccccc2)cc(-c2ccccc2)n1)c1nnn(CC(=O)NCCCOCCOCCOCCCNC(=O)c2ccc(N/N=C\c3ccccc3S(=O)(=O)O)nc2)n1 [Example 30, 2-(2-Aza-2-((5-(N-(3-(2-(2-(3-(2-(4-(5-(4,6-diphenyl(2-pyridyloxy))-1,1-dimethylpentyl)(1,2,3,5-tetraazolyl))acetylamino)propoxy)ethoxy)ethoxy)propyl)-carbamoyl)(2-pyridyl))amino)vinyl)benzenesulfonic Acid] | active |
| C=CCc1c(OCCCCCNC(=O)c2ccc(N/N=C/c3ccccc3S(=O)(=O)O)nc2)ccc2c1CCCC2=O [Example 47, 2-Sulfobenzaldehyde 6-[5-(6-Hydrazinonicotinamido)pentyloxy]-5-(2-propenyl)-1,2,3,4-tetrahydronaphthalen-1-one Hydrazone] | active |

More lines, now with the values ahead:

| activity in the LTB4 Human Neutrophil (PMN) Binding Assay | Structure (SMILES) |
| --- | --- |
| active | C=CCc1c(OCCCCCC(=O)NC(NC(=O)c2ccc(NN=Cc3ccccc3S(=O)(=O)O)nc2)C(=O)O)ccc2c1CCCC2=O (stereo not drawn) [Example 81] |
| active | CC(C)(CCCCOc1cc(-c2ccc3c(c2)OCO3)cc(-c2ccccc2)n1)C(=O)N[C@@H](NC(=O)c1ccc(N/N=C/c2ccccc2S(=O)(=O)O)nc1)C(=O)O [Example 84] |
| active | CC(C)(CCCCOc1cc(-c2ccccc2)cc(-c2ccccc2)n1)CNC(=O)C(CC(=O)NC(CC(=O)O)C(=O)O)NC(=O)c1ccc(NN=Cc2ccccc2S(=O)(=O)O)nc1 (stereo not drawn) [Example 70] |
| active | C=CCc1c(OCCNC(=O)c2ccc(N/N=C/c3ccccc3S(=O)(=O)O)nc2)ccc2c1CCCC2=O [Example 53, 2-Sulfobenzaldehyde 6-[2-(6-Hydrazinonicotinamido)ethoxy]-5-(2-propenyl)-1,2,3,4-tetrahydronaphthalen-1-one Hydrazone] |
| active | C=CCc1c(OCCCCC(C)(C)C(=O)NC(NC(=O)c2ccc(NN=Cc3ccccc3S(=O)(=O)O)nc2)C(=O)O)ccc2c1CCCC2=O (stereo not drawn) [Example 82] |
| active | O=C(O)C1Cc2ccc(OCCCCCOc3cc(-c4ccccc4)cc(-c4ccccc4)n3)cc2CN1C(=O)c1ccc(N/N=C/c2ccccc2S(=O)(=O)O)nc1 (stereo not drawn) [Example 62, 2-((6-((1-aza-2-(2-sulfophenyl)vinyl)-amino)(3-pyridyl))carbonyl)-7-(5-(4,6-diphenyl(2-pyridyloxy))pentyloxy)-1,2,3,4-tetrahydro-isoquinoline-3-carboxylic acid] |
| active | CC(C)(CCCCOc1cc(-c2ccc3c(c2)OCO3)cc(-c2ccccc2)n1)CNC(=O)[C@H](Cc1ccc(O)cc1)NC(=O)c1ccc(N/N=C/c2ccccc2S(=O)(=O)O)nc1 [Example 80] |
| active | CCOc1cc(/C=C/C(=O)NS(=O)(=O)c2ccc(NN)nc2)ccc1OCCCCCOc1cc(-c2ccccc2)cc(-c2ccccc2)n1 [Example 61, 3-(4-(5-(4,6-diphenyl(2-pyridyloxy))pentyloxy)-3-ethoxyphenyl)-N-((6-hydrazino(3-pyridyl))sulfonyl)prop-2-enamide] |
| active | CC(C)(NC(=O)CCCOc1cc(-c2ccccc2)cc(-c2ccccc2)n1)C(=O)N[C@@H](Cc1ccc(O)cc1)C(=O)NS(=O)(=O)c1ccc(NN)nc1 [Example 77, 4-(4,6-diphenyl(2-pyridyloxy))-N-(1-(N-(1-(N-((6-hydrazino(3-pyridyl))sulfonyl)cabamoyl)-2-(4-hydroxyphenyl)ethyl)-carbamoyl)-isopropyl)butanamide] |
| active | CC(C)(CCCCOc1cc(-c2ccccc2)cc(-c2ccccc2)n1)CNC(=O)C(CC(=O)NCCCOCCOCCOCCCNC(=O)CC1NC(=O)NC1=O)NC(=O)c1ccc(N/N=C\c2ccccc2S(=O)(=O)O)nc1 (stereo not drawn) [Example 68] |
| active | O=C(NC(Cc1ccccc1OCCCCCOc1cc(-c2ccccc2)cc(-c2ccccc2)n1)C(=O)O)c1ccc(NN=Cc2ccccc2S(=O)(=O)O)nc1 (racemic) [Example 64] |
| active | CCc1cc(-c2ccccc2)c(O)cc1OCCCCC(C)(C)CNC(=O)C(CC(=O)O)NC(=O)c1ccc(NN=Cc2ccccc2S(=O)(=O)O)nc1 (stereo not drawn) [Example 83] |
| active | CC(C)(CCCCOc1cc(-c2ccc3c(c2)OCO3)cc(-c2ccccc2)n1)CNC(=O)C(CC(=O)NCC(O)C(O)C(O)C(O)CO)NC(=O)c1ccc(NN=Cc2ccccc2S(=O)(=O)O)nc1 (stereo not drawn) [Example 86] |
| active | CC(C)(CCCCOc1cc(-c2ccccc2)cc(-c2ccccc2)n1)CNC(=O)C(CC(=O)O)NC(=O)c1cccnc1 (stereo not drawn) [Example 73, 3-(N-(6-(4,6-diphenyl(2-pyridyloxy))-2,2-dimethylhexyl)carbamoyl)-3-(3-pyridylcarbonylamino)propanoic acid] |
